PubChem BioAssay AID1224830 | NIAID | 2016

- Purpose: 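Regulators of TLR4 signalling towards TNF-alpha in macrophage-like cells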 (primary screen)
- Cells: human THP-1 monocytic leukaemia cells, TNF dual-luciferase reporter clone, PMA-differentiated to macrophage-like cells
- Reagent: siRNA pool against human genes, 50 nM
- Timing: LPS for 4 h, given about 3 days after siRNA transfection
- Treatment: bacterial LPS (TLR4 ligand), 10 ng/ml
- Read-out: 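TNF firefly reporter luminescence divided by renilla, normalised to the plate median, then turned into a robust z-score for each replicate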
- Direction: TNF reporter robust z-score: higher = stronger TNF reporter response to LPS
- Active means: 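Each well counts as active if its z-score is over 2.8 or under -1.5; controls are left without a call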
Here is a random part of about 18,000 deposited reagents. In the full data, about 2,900 (16%) got an active call. 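Calls are made per well; low scores hint the gene aids the LPS response, high scores that it dampens it.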 Unmarked entries are inactive. Repeated entries: four replicate wells of each siRNA pool.

{"Target gene": "APOB (apolipoprotein B)", "TNF reporter robust z-score": -1.27}
{"Target gene": "APOB (apolipoprotein B)", "TNF reporter robust z-score": -0.95}
{"Target gene": "APOB (apolipoprotein B)", "TNF reporter robust z-score": "-1.53 (active)"}
{"Target gene": "APOB (apolipoprotein B)", "TNF reporter robust z-score": -1.14}
{"Target gene": "ZNF449 (zinc finger protein 449)", "TNF reporter robust z-score": 0.81}
{"Target gene": "ZNF449 (zinc finger protein 449)", "TNF reporter robust z-score": 0.56}
{"Target gene": "ZNF449 (zinc finger protein 449)", "TNF reporter robust z-score": 0.37}
{"Target gene": "ZNF449 (zinc finger protein 449)", "TNF reporter robust z-score": -0.02}
{"Target gene": "SEC14L4 (SEC14 like lipid binding 4)", "TNF reporter robust z-score": 1.68}
{"Target gene": "SEC14L4 (SEC14 like lipid binding 4)", "TNF reporter robust z-score": 2.21}
{"Target gene": "SEC14L4 (SEC14 like lipid binding 4)", "TNF reporter robust z-score": "3.16 (active)"}
{"Target gene": "SEC14L4 (SEC14 like lipid binding 4)", "TNF reporter robust z-score": 1.62}
{"Target gene": "ASPN (asporin)", "TNF reporter robust z-score": -1.11}
{"Target gene": "ASPN (asporin)", "TNF reporter robust z-score": -1.25}
{"Target gene": "ASPN (asporin)", "TNF reporter robust z-score": -1.18}
{"Target gene": "ASPN (asporin)", "TNF reporter robust z-score": -1.09}
{"Target gene": "MMP16 (matrix metallopeptidase 16)", "TNF reporter robust z-score": 0.28}
{"Target gene": "MMP16 (matrix metallopeptidase 16)", "TNF reporter robust z-score": 1.65}
{"Target gene": "MMP16 (matrix metallopeptidase 16)", "TNF reporter robust z-score": 0.68}
{"Target gene": "MMP16 (matrix metallopeptidase 16)", "TNF reporter robust z-score": -0.07}
{"Target gene": "PLCXD3", "TNF reporter robust z-score": 0.95}
{"Target gene": "PLCXD3", "TNF reporter robust z-score": 1.62}
{"Target gene": "PLCXD3", "TNF reporter robust z-score": 1.09}
{"Target gene": "PLCXD3", "TNF reporter robust z-score": 2.04}
{"Target gene": "CCNJ (cyclin J)", "TNF reporter robust z-score": -1.13}
{"Target gene": "CCNJ (cyclin J)", "TNF reporter robust z-score": -0.66}
{"Target gene": "CCNJ (cyclin J)", "TNF reporter robust z-score": -0.19}
{"Target gene": "CCNJ (cyclin J)", "TNF reporter robust z-score": 0.1}
{"Target gene": "RPS6KB1 (ribosomal protein S6 kinase B1)", "TNF reporter robust z-score": -0.17}
{"Target gene": "RPS6KB1 (ribosomal protein S6 kinase B1)", "TNF reporter robust z-score": 1.42}
{"Target gene": "RPS6KB1 (ribosomal protein S6 kinase B1)", "TNF reporter robust z-score": 0.84}
{"Target gene": "RPS6KB1 (ribosomal protein S6 kinase B1)", "TNF reporter robust z-score": 0.98}
{"Target gene": "ATP13A1 (ATPase 13A1)", "TNF reporter robust z-score": 0.18}
{"Target gene": "ATP13A1 (ATPase 13A1)", "TNF reporter robust z-score": -0.63}
{"Target gene": "ATP13A1 (ATPase 13A1)", "TNF reporter robust z-score": -0.95}
{"Target gene": "ATP13A1 (ATPase 13A1)", "TNF reporter robust z-score": -0.17}
{"Target gene": "SCAF8 (SR-related CTD associated factor 8)", "TNF reporter robust z-score": 1.59}
{"Target gene": "SCAF8 (SR-related CTD associated factor 8)", "TNF reporter robust z-score": 1.29}
{"Target gene": "SCAF8 (SR-related CTD associated factor 8)", "TNF reporter robust z-score": 0.1}
{"Target gene": "SCAF8 (SR-related CTD associated factor 8)", "TNF reporter robust z-score": 0.81}
{"Target gene": "KLHL42 (kelch like family member 42)", "TNF reporter robust z-score": -0.13}
{"Target gene": "KLHL42 (kelch like family member 42)", "TNF reporter robust z-score": 0.07}
{"Target gene": "KLHL42 (kelch like family member 42)", "TNF reporter robust z-score": -0.03}
{"Target gene": "KLHL42 (kelch like family member 42)", "TNF reporter robust z-score": 0.5}
{"Target gene": "CAP1 (cyclase associated actin cytoskeleton regulatory protein 1)", "TNF reporter robust z-score": 2.74}
{"Target gene": "CAP1 (cyclase associated actin cytoskeleton regulatory protein 1)", "TNF reporter robust z-score": -0.09}
{"Target gene": "CAP1 (cyclase associated actin cytoskeleton regulatory protein 1)", "TNF reporter robust z-score": -0.67}
{"Target gene": "CAP1 (cyclase associated actin cytoskeleton regulatory protein 1)", "TNF reporter robust z-score": -0.38}
{"Target gene": "LONRF1 (LON peptidase N-terminal domain and ring finger 1)", "TNF reporter robust z-score": 0.65}
{"Target gene": "LONRF1 (LON peptidase N-terminal domain and ring finger 1)", "TNF reporter robust z-score": -0.27}
{"Target gene": "LONRF1 (LON peptidase N-terminal domain and ring finger 1)", "TNF reporter robust z-score": -0.61}
{"Target gene": "LONRF1 (LON peptidase N-terminal domain and ring finger 1)", "TNF reporter robust z-score": 0.06}
{"Target gene": "HIF3A (hypoxia inducible factor 3 subunit alpha)", "TNF reporter robust z-score": 1.86}
{"Target gene": "HIF3A (hypoxia inducible factor 3 subunit alpha)", "TNF reporter robust z-score": 1.97}
{"Target gene": "HIF3A (hypoxia inducible factor 3 subunit alpha)", "TNF reporter robust z-score": 0.62}
{"Target gene": "HIF3A (hypoxia inducible factor 3 subunit alpha)", "TNF reporter robust z-score": 1.99}
{"Target gene": "GARIN2 (golgi associated RAB2 interactor family member 2)", "TNF reporter robust z-score": -0.14}
{"Target gene": "GARIN2 (golgi associated RAB2 interactor family member 2)", "TNF reporter robust z-score": -0.41}
{"Target gene": "GARIN2 (golgi associated RAB2 interactor family member 2)", "TNF reporter robust z-score": -0.7}
{"Target gene": "GARIN2 (golgi associated RAB2 interactor family member 2)", "TNF reporter robust z-score": -0.1}
